This is an account of results in patent US20250163052A1, “cGAS INHIBITORS AND USES THEREOF” (Cornell University, priority 2022, published 2025).

Data set [1] in a line: Metabolic stability in mouse liver microsomes.
Data set [2] in a line: Metabolic stability in human liver microsomes. (In general: Liver microsomes are a subcellular fraction often used to study metabolism.)

For `CCCNCC(O)COc1ccccc1C(=O)CCc1ccccc1` (stereo not drawn) [Propafenone, reference compound], the “Remaining (NCF = 60 min)” value in data set [1] (mouse liver microsomes, 60 min, no co-factor (no NADPH)) was determined as 103.5%; in data set [2] (60 min, no co-factor (no NADPH)) it was 117.3%. Besides, the “Remaining (T = 60 min)” value in data set [1] (mouse liver microsomes, 60 min with NADPH) was determined as 0.0%; in data set [2] (60 min with NADPH), 0.0%. Moreover, the CLint scaled in data set [1] (mouse, liver microsomes) came out at 185 L/h/kg. The microsomal CLint in data set [1] (mouse, liver microsomes) came out at 777 µL/min/mg.

What is called CLint scaled is the capacity of the preparation to metabolise the compound, expressed as a volume cleared per time. The term microsomal CLint denotes the rate of metabolic loss divided by the concentration. Low values mean slow turnover, high ones rapid turnover.
